# PubChem BioAssay AID1745850 (National Center for Advancing Translational Sciences (NCATS), 2022)
# About 260 (12%) of roughly 2,100 compounds were called active. The inconclusive results got no clear call from the source; some entries with a clear call stand among them for comparison. The call rests on the fitted dose curve; in most records, active means well fitted cell-killing curve with a large enough effect; inconclusive means small, poorly fitted or top-dose-only effect, or effect the other way; inactive means flat fitted curve, though single readings scatter. A potency beside an inconclusive call is a rough fit, not a confirmed value.
# Experiment: Viability Counterscreen for Confirmatory qHTS for Inhibitors of ATXN expression; further: nearly all actives have a fitted effect of over 50% in size
# Details: HEK-293 ATXN2-luc cells viability, CellTiter-Fluor, 24 h
# Procedure, shortened: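 Cells with an ATXN2-luciferase reporter were dosed in a dilution series for 24 h at 37 degrees C. Viability was read first with Gly-Phe-AFC at 25 uM final (fluorescence, ex 405/em 540), then SteadyGlo luminescence. Medium-only wells defined 100% inhibition.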
# Potency means the concentration at half of the fitted maximal effect.
row,Structure (SMILES),Potency
1,CCN(CC)c1ccc(/C=N/NC(=O)CNC(=O)C2COc3ccccc3O2)c(O)c1 (stereo not drawn),inactive
2,CCC(=O)NC(c1cc(Cl)c2cccnc2c1O)C(C)C (stereo not drawn),"inconclusive: 8.91 µM [cytotoxic, full curve, poor fit]"
3,Cc1nc(Oc2ccc(S(=O)(=O)N3CCOCC3)cc2Cl)c2c3c(sc2n1)CCCC3,"inconclusive: 7.08 µM [cytotoxic, single point]"
4,CN1C2CCC1/C(=C\c1ccccc1)C(=O)/C2=C\c1ccccc1,"inconclusive: 20 µM [cytotoxic, partial curve]"
5,COc1ccc(N(CC(=O)N2CCN(c3ccc(Cl)cc3)CC2)S(=O)(=O)c2c(C)n[nH]c2C)cc1,inactive
6,CC1(C(=O)NCc2ccccc2Br)CCN1C(=O)Cc1ccc(-c2ccccc2)cc1 (stereo not drawn),"inconclusive: 31.6 µM [cytotoxic, single point]"
7,CN(C)CCCN(C(=O)c1ccc(S(=O)(=O)N2CCCCCC2)cc1)c1nc2ccc(Br)cc2s1,"inconclusive: 8.91 µM [cytotoxic, single point]"
8,O=C(Nc1ccc(F)cc1)Nc1cc(OCC(F)(F)F)cc(OCC(F)(F)F)c1,"inconclusive: 7.94 µM [cytotoxic, full curve, poor fit]"
9,CCOc1ccc(/C=C/[N+](=O)[O-])c2ccccc12,"inconclusive: 28.2 µM [cytotoxic, single point]"
10,NC(N)=N/N=C/c1ccc2cccc(OCc3ccccc3)c2n1,active: 15.8 µM
11,CCN(CC)c1nc(-c2ccccn2)nc(-c2ccccc2)c1C#N,active: 8.91 µM
12,Cc1nn(Cc2c(F)c(F)c(F)c(F)c2F)c(C)c1NC(=O)c1ccc(COc2ccc(Cl)cc2Cl)o1,"inconclusive: 31.6 µM [cytotoxic, single point]"
13,COc1cccc(/C=N/NC(=O)c2c(-c3ccccc3)noc2C)c1O,"inconclusive: 1.58 µM [cytotoxic, partial curve, poor fit]"
14,COc1ccc(F)cc1-c1cc(NC=O)c2ncc(-c3cccc(C(=O)N(C)C)c3)n2c1,"inconclusive: 6.31 µM [cytotoxic, single point]"
15,COc1ccccc1N1CCN(Cc2ccc(O)c3ncccc23)CC1,active: 2.82 µM
16,CCCCn1c(SCc2ncc(-c3ccccc3)o2)nc2cc(S(N)(=O)=O)ccc21,"inconclusive: 20 µM [cytotoxic, single point]"
17,c1cnc2c(c1)ccc1cccnc12,"inconclusive: 10 µM [cytotoxic, partial curve]"
18,Cc1c(C(=O)N2CCN(c3ccc(F)cc3)CC2)sc2ncnc(N3CCN(c4ccccn4)CC3)c12,"inconclusive: 2.82 µM [cytotoxic, partial curve]"
19,OC[C@@H]1CN(Cc2ccncc2)C[C@H](n2cnc3c(N4CCN(c5ccccc5)CC4)ncnc32)O1,"inconclusive: 3.16 µM [cytotoxic, single point]"
20,CN(C)CCCN(C(=O)CCc1ccccc1)c1nc2ccc(Br)cc2s1,"inconclusive: 28.2 µM [cytotoxic, single point]"
21,Cc1ccc(S(=O)(=O)N(C(=O)c2ccncc2)c2ccc(OC(=O)c3ccncc3)c3ccccc23)cc1,"inconclusive: 3.98 µM [cytotoxic, single point]"
22,Oc1ccc(C[C@@H]2CNCCN2CCc2cc(C(F)(F)F)cc(C(F)(F)F)c2)cc1,"inconclusive: 8.91 µM [cytotoxic, single point]"

# 3 entries from above, sorted by formula weight, rising:
row,Structure (SMILES),Potency
4,CN1C2CCC1/C(=C\c1ccccc1)C(=O)/C2=C\c1ccccc1,"inconclusive: 20 µM [cytotoxic, partial curve]"
11,CCN(CC)c1nc(-c2ccccn2)nc(-c2ccccc2)c1C#N,active: 8.91 µM
22,Oc1ccc(C[C@@H]2CNCCN2CCc2cc(C(F)(F)F)cc(C(F)(F)F)c2)cc1,"inconclusive: 8.91 µM [cytotoxic, single point]"

# The listing continues.

row,Structure (SMILES),Potency
1,Cc1cc(C)c2nc(N3CCCC(C(=O)N4CCN(c5ncccn5)CC4)C3)sc2c1 (stereo not drawn),"inconclusive: 3.16 µM [cytotoxic, single point]"
2,C(=NN1CCCCCC1)c1ccc2ccccc2n1,"inconclusive: 39.8 µM [cytotoxic, partial curve, poor fit]"
3,CCC1(c2ccccc2)ON(c2c(Br)cccc2Br)C1=O (stereo not drawn),"inconclusive: 28.2 µM [cytotoxic, partial curve]"
4,O=C(NC(=S)N1CCN(c2ccc(F)cc2)CC1)c1cccs1,inactive
5,COc1ccc(O)c(/C=N/NC(=O)c2ccc(OCc3cccc(Br)c3)cc2)c1,inactive
6,Cc1nn(-c2ccccc2)c(N2CCCC2)c1/C=N/NC(=O)c1cc2ccccc2cc1O,inactive
7,Cc1ccc(NC(=O)CCC(=O)c2cc(C)sc2C)nc1,inactive
8,COc1ccc(CN(C)C(=O)c2cccc(NC(=O)CC3SC(N4CCCCC4)=NC3=O)c2)c(OC)c1 (stereo not drawn),active: 35.5 µM
9,Cc1nc(N/N=C/c2ccc(O)cc2O)cc(N2CCOCC2)n1,"inconclusive: 15.8 µM [cytotoxic, partial curve, poor fit]"
10,OC1(c2ccc(Br)cc2)CCNCC1,inactive
11,Cc1ccc(-c2cc(C(=O)NCCCN3CCOCC3)no2)cc1,inactive
12,O=C(Nc1ccccc1NC(=O)NC1CCCCC1)NC1CCCCC1,"inconclusive: 39.8 µM [cytotoxic, single point]"
13,Clc1ccc(COC(Cn2ccnc2)c2ccc(Cl)cc2Cl)c(Cl)c1 (stereo not drawn),"inconclusive: 7.08 µM [cytotoxic, single point]"
14,CC(C)NC1CCC(Nc2ccnc3cc(Cl)ccc23)CC1 (stereo not drawn),"inconclusive: 20 µM [cytotoxic, partial curve, poor fit]"
15,COc1cc(C=CC(=O)c2cc(OC)c(OC)c(OC)c2)cc(OC)c1OC,active: 17.8 µM
16,CCOc1ccccc1C(=O)Nc1ccc2nc(N3CCN(c4ncccn4)CC3)cc(C)c2c1,active: 11.2 µM
17,COc1ccc(N2CCN(c3nc(NCCc4ccc(OC)c(OC)c4)nc(OC)n3)CC2)cc1,"inconclusive: 28.2 µM [cytotoxic, single point]"
18,O=C(NN=Cc1c(O)ccc2ccccc12)c1ccc2c(c1)OCO2,"inconclusive: 8.91 µM [cytotoxic, partial curve]"
19,CCCCCn1c(=O)c2ccccc2n2c(CCl)nnc12,active: 25.1 µM
20,CCc1nc2c(OCCOc3ccc(F)cc3)cccn2c1N(C)C(=O)c1ccco1,inactive
21,CCCCC(=O)OCC(=O)C1(O)Cc2c(O)c3c(c(O)c2C(OC2CC(NC(=O)C(F)(F)F)C(O)C(C)O2)C1)C(=O)c1c(OC)cccc1C3=O (stereo not drawn),active: 15.8 µM
